# Experimental data taken from PubChem BioAssay (NCATS).
# The inconclusive results got no clear call from the source; some entries with a clear call stand among them for comparison. Where a call stands in place of a potency, no number is given. Potencies of inconclusive entries are doubtful fits and often do not repeat. The source made the active and inactive calls. Calls come from the whole dose curve; as a rule, active = well fitted inhibition curve with a large enough effect; inconclusive = small, poorly fitted or top-dose-only effect; inactive = flat fitted curve, though single readings scatter.
# Tested on: NanoLuc luciferase (engineered Oplophorus gracilirostris luciferase)
# Test: Biochemical coelenterazine-based NLuc counterscreen for small molecule modulators of PMP22 gene expression - Km assay (AID 1508639)
# Conditions: secreted NLuc enzyme, coelenterazine luminescence, Km conditions; series mostly up to 57.5 µM
# Method in brief: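 Compounds pre-incubate 5 min with coelenterazine (15 uM, PBS pH 7.4, Triton X and ascorbate) before NLuc-containing S16 conditioned medium is introduced; light output is imaged after 10 min protected from light at ambient temperature.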
# Potency is the fitted concentration of half-maximal effect.
row,Structure (SMILES),Potency
1,COc1ccccc1Nc1nn2c(=O)c3ccc(C(=O)NCCC4=CCCCC4)cc3nc2s1,"inconclusive: 30.6 µM [inhibitor, partial curve, poor fit]"
2,COc1ccc(Cl)cc1NC(=O)CSc1nc2ccccc2nc1N1CCCCC1,inactive
3,O=C1CC(c2cccc(Cl)c2Cl)c2cc3c(cc2N1)OCCO3 (centres undefined),"inconclusive: 24.3 µM [inhibitor, partial curve]"
4,COc1ccc(Nc2c3c(nc4ccccc24)CCC3)cc1Cl,inactive
5,CCC1CCCCN1CCCNC(=O)c1cc2c(Cl)nc3ccccc3c2s1 (centres undefined),inactive
6,O=C(NCCc1ccccc1)c1c[nH]c2ccc(S(=O)(=O)Nc3ccccc3F)cc2c1=O,inactive
7,CCc1ccccc1NC(=O)Cn1c(=O)n(Cc2ccc3c(c2)OCO3)c(=O)c2ccc(C(=O)NC3CCCCC3)cc21,inactive
8,COc1ccc(OC)c(NC(=O)Cn2cnc3onc(-c4ccc(Cl)cc4)c3c2=O)c1,inactive
9,CC(C)OCCCNC(=O)c1ccc(-n2c(-c3ccccc3)cc3c2CCCC3)cc1,inactive

# Reformatted as tab-separated lines: part of the list above.
row	Structure (SMILES)	Potency
8	COc1ccc(OC)c(NC(=O)Cn2cnc3onc(-c4ccc(Cl)cc4)c3c2=O)c1	inactive
9	CC(C)OCCCNC(=O)c1ccc(-n2c(-c3ccccc3)cc3c2CCCC3)cc1	inactive
